According to the supplement of paper PMC10849652:
This is one part of the list. Residues, ends and D or L forms follow the SMILES beside them. *: point of attachment. Cbz = O=C(OCc1ccccc1)*

By UniProt entry, the sequences of proteins in these tests, tags left out. Where a name states a change or a piece, a line headed by the entry shows the natural chain unless it says otherwise.
UniProt Q6Y288: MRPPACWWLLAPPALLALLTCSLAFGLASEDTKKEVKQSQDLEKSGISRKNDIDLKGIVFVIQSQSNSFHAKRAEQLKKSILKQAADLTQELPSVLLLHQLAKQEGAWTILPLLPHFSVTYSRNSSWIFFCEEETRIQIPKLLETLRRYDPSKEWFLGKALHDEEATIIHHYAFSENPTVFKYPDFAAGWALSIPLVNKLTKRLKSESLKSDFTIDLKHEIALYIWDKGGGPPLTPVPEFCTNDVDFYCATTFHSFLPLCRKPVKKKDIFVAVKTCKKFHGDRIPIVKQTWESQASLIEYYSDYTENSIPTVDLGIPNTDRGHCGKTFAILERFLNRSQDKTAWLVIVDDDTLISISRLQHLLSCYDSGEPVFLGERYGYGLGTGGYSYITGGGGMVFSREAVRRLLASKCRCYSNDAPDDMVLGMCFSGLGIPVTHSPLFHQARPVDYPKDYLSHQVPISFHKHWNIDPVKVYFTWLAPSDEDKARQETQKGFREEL
UniProt O95861: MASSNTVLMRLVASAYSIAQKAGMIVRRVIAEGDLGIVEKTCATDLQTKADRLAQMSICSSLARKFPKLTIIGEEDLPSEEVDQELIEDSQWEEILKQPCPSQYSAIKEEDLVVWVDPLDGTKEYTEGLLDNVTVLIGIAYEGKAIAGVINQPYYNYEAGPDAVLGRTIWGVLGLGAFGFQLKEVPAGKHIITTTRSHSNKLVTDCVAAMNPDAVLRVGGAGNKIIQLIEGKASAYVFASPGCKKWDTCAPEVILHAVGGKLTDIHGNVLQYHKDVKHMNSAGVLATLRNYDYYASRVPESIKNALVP
UniProt Q9NXR7, whole entry, looked up: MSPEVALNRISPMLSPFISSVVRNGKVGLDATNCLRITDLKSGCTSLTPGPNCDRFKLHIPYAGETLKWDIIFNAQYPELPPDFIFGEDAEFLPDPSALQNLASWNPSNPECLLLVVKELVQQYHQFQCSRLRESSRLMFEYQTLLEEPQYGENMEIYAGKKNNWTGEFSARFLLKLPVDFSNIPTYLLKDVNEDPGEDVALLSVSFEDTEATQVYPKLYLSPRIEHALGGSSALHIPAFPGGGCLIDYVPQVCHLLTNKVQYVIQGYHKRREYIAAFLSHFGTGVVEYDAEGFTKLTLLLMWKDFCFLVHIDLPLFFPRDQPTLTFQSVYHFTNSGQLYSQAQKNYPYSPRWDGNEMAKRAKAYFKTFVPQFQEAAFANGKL
UniProt Q9NW68: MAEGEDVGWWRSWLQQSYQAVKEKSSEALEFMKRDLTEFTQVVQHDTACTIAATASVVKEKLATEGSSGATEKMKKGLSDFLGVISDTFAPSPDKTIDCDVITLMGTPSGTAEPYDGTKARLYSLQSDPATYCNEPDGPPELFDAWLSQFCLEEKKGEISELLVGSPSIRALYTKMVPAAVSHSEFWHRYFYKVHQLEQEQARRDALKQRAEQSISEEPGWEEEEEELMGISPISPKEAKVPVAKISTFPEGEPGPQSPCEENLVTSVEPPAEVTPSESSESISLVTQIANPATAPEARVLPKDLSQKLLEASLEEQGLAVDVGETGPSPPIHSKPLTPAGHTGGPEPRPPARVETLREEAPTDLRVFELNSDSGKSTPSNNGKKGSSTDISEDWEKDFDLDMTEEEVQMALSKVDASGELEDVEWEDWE
UniProt P51572: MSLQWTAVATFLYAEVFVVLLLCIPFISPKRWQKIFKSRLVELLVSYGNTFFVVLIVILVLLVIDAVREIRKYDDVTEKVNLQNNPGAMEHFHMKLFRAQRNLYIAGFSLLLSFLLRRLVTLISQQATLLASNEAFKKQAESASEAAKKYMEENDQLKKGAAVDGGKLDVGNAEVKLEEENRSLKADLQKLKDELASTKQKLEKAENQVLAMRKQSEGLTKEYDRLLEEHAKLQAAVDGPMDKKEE
UniProt O15382: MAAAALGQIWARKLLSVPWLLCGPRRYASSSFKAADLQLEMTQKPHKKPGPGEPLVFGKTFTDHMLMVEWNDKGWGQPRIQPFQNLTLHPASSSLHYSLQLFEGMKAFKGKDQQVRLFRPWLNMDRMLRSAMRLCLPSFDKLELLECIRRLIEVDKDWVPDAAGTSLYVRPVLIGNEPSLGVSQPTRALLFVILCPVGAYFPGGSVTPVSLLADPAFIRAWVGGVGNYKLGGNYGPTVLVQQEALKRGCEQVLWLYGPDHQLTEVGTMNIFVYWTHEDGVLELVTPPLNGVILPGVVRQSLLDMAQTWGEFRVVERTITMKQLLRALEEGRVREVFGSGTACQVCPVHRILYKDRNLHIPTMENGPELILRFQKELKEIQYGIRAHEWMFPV
UniProt Q8TDH9: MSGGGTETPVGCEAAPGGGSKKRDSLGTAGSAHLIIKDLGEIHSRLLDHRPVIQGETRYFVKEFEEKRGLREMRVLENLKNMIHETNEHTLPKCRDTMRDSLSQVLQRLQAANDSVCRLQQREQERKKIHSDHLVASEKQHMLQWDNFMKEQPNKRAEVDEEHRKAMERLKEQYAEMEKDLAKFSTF
UniProt O95816: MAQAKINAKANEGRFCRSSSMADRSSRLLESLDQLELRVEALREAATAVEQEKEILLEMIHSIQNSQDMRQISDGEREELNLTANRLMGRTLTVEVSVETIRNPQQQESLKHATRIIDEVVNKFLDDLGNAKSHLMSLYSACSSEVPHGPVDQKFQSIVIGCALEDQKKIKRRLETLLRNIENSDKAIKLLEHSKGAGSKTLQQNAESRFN
UniProt Q8WXE1: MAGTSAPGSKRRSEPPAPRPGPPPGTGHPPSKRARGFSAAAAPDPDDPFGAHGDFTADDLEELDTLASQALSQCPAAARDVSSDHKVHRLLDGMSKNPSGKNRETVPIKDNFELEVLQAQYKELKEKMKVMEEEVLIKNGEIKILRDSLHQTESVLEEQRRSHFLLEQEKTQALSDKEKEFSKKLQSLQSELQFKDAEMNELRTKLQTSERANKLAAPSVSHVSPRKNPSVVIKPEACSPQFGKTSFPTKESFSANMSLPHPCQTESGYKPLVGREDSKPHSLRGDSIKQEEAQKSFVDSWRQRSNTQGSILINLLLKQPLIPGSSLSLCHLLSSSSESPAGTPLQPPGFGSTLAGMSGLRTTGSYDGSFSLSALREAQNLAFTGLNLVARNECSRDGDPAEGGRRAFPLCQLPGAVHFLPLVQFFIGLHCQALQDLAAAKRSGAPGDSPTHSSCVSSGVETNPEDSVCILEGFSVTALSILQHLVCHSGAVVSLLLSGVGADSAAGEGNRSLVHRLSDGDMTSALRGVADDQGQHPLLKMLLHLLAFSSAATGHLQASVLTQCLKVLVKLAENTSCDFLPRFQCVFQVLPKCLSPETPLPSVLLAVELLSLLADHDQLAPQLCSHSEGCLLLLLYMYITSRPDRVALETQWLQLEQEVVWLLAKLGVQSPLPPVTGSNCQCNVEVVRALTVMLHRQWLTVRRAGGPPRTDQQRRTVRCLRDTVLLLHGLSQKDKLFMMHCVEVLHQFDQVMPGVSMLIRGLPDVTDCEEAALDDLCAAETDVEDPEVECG
UniProt Q9UBB4: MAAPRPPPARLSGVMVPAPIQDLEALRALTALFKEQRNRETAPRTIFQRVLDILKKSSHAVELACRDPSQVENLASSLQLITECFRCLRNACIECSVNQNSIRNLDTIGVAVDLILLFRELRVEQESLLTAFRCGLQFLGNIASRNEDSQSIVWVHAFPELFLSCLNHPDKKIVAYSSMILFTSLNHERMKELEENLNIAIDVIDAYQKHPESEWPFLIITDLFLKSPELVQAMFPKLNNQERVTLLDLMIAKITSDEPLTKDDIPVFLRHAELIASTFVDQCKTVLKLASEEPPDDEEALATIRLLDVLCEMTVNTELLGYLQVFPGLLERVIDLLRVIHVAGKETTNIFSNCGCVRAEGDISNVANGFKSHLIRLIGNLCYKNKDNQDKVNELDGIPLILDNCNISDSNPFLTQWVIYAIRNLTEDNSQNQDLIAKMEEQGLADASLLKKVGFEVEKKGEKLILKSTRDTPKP
UniProt O75531: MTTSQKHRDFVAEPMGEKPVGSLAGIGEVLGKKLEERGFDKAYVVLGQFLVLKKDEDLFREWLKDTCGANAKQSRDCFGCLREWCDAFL
UniProt O15155: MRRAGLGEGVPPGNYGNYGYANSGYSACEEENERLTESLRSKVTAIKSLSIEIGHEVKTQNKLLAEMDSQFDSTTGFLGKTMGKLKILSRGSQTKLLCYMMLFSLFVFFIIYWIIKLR
UniProt P25311: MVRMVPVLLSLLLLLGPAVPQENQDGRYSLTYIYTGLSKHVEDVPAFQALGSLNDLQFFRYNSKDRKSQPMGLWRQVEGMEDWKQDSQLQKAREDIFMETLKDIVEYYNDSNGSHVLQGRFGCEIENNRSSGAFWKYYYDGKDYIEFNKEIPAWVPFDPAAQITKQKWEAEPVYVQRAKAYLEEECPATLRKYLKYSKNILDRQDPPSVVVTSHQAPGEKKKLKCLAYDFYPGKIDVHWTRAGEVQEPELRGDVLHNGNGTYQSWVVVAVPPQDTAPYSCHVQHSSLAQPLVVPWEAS
UniProt Q5VW32: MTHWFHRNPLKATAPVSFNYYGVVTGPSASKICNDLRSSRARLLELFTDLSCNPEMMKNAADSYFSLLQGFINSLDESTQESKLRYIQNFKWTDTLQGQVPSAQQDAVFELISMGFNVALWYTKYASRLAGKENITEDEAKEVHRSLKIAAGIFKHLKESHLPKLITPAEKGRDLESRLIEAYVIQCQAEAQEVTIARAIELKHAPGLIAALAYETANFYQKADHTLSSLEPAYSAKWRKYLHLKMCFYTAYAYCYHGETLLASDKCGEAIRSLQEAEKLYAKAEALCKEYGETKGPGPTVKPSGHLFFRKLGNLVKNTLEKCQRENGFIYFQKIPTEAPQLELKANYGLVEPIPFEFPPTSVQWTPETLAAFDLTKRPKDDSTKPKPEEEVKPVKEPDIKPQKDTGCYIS
UniProt Q9BXH1: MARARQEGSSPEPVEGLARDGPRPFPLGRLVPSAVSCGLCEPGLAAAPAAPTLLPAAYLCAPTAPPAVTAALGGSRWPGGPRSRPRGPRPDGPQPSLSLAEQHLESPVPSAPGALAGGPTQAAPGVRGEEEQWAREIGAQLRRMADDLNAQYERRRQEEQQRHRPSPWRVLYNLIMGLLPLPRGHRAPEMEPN

Legend:
Assay in all cases: log2 fold change, soluble protein after heating vs DMSO (PISA); higher = thermal stabilisation; K562 cells, 10 uM, 30 min; active = over 0.2 and 3.5 SD of the protein, either way, in both replicates (recomputed)
erlotinib = compound: C#Cc1cccc(Nc2ncnc3cc(OCCOC)c(OCCOC)cc23)c1 [erlotinib]
Outline: (§1)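 Aliquots of K562 cells (2×10^6 cells/mL) treated with 10 μM compound for 30 min were heated for 3 min over 48°C-58°C. After pooling and extraction in PBS with 0.5% NP-40 at 4°C, soluble protein from a 21,000xg, 90 min spin was quantified by TMTpro 16plex LC-MS/MS with channel sums equalised. Thermal stability is expressed against control samples, from duplicates, as a log2 fold change.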

[1] = compound: C/C(=N\NC(=O)C1=CC(=CC=C1)S(=O)(=O)N2CCOCC2)/C3=C(C=CC(=C3)Cl)O
Outline: as §1

[2] = compound: C1=CC(=C(C=C1Cl)C2=NC3=NC=CN=C3C(=N2)NC4=CC=NC=C4)F
Outline: as §1

[3] = compound: C1=CC(=CC=C1C2=NC3=C(N2)C=C(C=C3)C(=O)N)OC4=CC=C(C=C4)Cl
Outline: as §1

[4] = compound: C1=CC2=C(C=CC(=C2)/C=C\3/C(=O)NC(=NCC4=CC=CS4)S3)N=C1
Outline: as §1

[5] = compound: C1=CC2=NC=CN=C2C=C1/C=C/3\C(=O)NC(=O)S3
Outline: as §1

[6] = compound: C1=CC=C(C=C1)C2=NC(=C(N2)C3=CC=NC=C3)C4=CC(=C(C=C4)Cl)O
Outline: as §1

[7] = compound: C1=CC=C2C(=C1)C3=NNC4=CC=CC(=C43)C2=O
Outline: as §1

[8] = compound: C1CCN(C1)C(=O)NC2=CC=CC(=C2)NC3=NC=C(C(=N3)NCCC4=CN=CN4)Br
Outline: as §1

[9] = compound: C1CN(CCC1(CC2=CC=C(C=C2)Cl)N)C3=NC=NC4=C3C=CN4
Outline: as §1

IRAK-1-4 Inhibitor I = compound: C1COCCN1CCN2C3=CC=CC=C3N=C2NC(=O)C4=CC(=CC=C4)[N+](=O)[O-] [IRAK-1-4 Inhibitor I]
Outline: as §1

ibrutinib = compound: C=CC(=O)N1CCC[C@@H](n2nc(-c3ccc(Oc4ccccc4)cc3)c3c(N)ncnc32)C1 [ibrutinib]
Outline: as §1

[10] = compound: CC(=O)c1cnc2ccc(-c3cc(Cl)c(O)c(Cl)c3)nc2c1N[C@H]1CC[C@H](CN(C)C)CC1
Outline: as §1

ralimetinib = compound: CC(C)(C)Cn1c(N)nc2ccc(-c3[nH]c(C(C)(C)C)nc3-c3ccc(F)cc3)nc21 [ralimetinib]
Outline: as §1

[11] = compound: CC(C)(O)CC(=O)NCCn1ccc2ncnc(Nc3ccc(Oc4cccc(C(F)(F)F)c4)c(Cl)c3)c21
Outline: as §1

[12] = compound: CC(C)C1=C2N=C(C=C(N2N=C1)NCC3=CC=CC=C3)NCCCCCCN
Outline: as §1

[13] = compound: CC(C)C[C@@H](C=O)NC(=O)[C@H](CC(C)C)NC(=O)[C@H](CC(C)C)NC(=O)OCc1ccccc1
Outline: as §1

pinometostat = compound: CC(C)N(C[C@H]1O[C@@H](n2cnc3c(N)ncnc32)[C@H](O)[C@@H]1O)[C@H]1C[C@@H](CCc2nc3cc(C(C)(C)C)ccc3[nH]2)C1 [pinometostat]
Outline: as §1

[14] = compound: CC1=C(C(CC(=O)N1)C2=CC=C(C=C2)C(F)(F)F)C(=O)NC3=C(C=C4C(=C3)C=NN4)F
Outline: as §1

[15] = compound: CC1=C(C2=C(C=C1)C(=O)C3=CC=CC=C3N2CCCN)C
Outline: as §1

Measured: log2 fold change

B3GLCT (UniProt Q6Y288)
inactive: erlotinib -0.011 | [1] -0.012 | [2] 0.111 | [3] -0.022 | [4] -0.01 | [5] 0.084 | [6] -0.035 | [7] 0.009 | [8] 0.013 | [9] 0.014 | IRAK-1-4 Inhibitor I -0.041 | ibrutinib -0.048 | [10] 0.017 | ralimetinib 0 | [11] -0.061 | [12] 0 | [13] 0.069 | pinometostat 0.006 | [14] 0.032 | [15] 0.026

BIRC6 (UniProt Q9NR09)
inactive: erlotinib -0.058 | [1] 0.063 | [2] -0.01 | [3] 0.004 | [4] -0.004 | [5] 0.02 | [6] -0.002 | [7] 0.019 | [8] 0.003 | [9] -0.059 | IRAK-1-4 Inhibitor I -0.003 | ibrutinib -0.005 | [10] 0.045 | ralimetinib 0.031 | [11] -0.07 | [12] -0.066 | [13] 0.047 | pinometostat 0.076 | [14] 0.003 | [15] 0.026

BPNT1 (UniProt O95861)
inactive: erlotinib -0.026 | [1] 0.016 | [2] 0.045 | [3] 0.008 | [4] -0.022 | [5] -0.008 | [6] 0.037 | [7] -0.016 | [8] -0.019 | [9] -0.021 | IRAK-1-4 Inhibitor I 0.023 | ibrutinib 0.044 | [10] 0.024 | ralimetinib -0.033 | [11] -0.011 | [12] 0.051 | [13] -0.013 | pinometostat -0.025 | [14] -0.021 | [15] -0.054

BABAM2 (UniProt Q9NXR7)
inactive: erlotinib -0.042 | [1] -0.004 | [2] -0.038 | [3] 0.002 | [4] -0.007 | [5] 0.012 | [6] 0.034 | [7] -0.011 | [8] -0.016 | [9] 0.073 | IRAK-1-4 Inhibitor I 0.024 | ibrutinib 0.024 | [10] 0.004 | ralimetinib 0.065 | [11] -0.014 | [12] 0.076 | [13] -0.011 | pinometostat 0.021 | [14] 0.05 | [15] 0.022

BSDC1 (UniProt Q9NW68)
inactive: erlotinib -0.058 | [1] 0.028 | [2] 0.048 | [3] 0.021 | [4] -0.026 | [5] 0.025 | [6] -0.066 | [7] -0.055 | [8] 0.035 | [9] -0.009 | IRAK-1-4 Inhibitor I 0.057 | ibrutinib 0.025 | [10] 0.06 | ralimetinib 0.042 | [11] 0.009 | [12] 0.004 | [13] 0.014 | pinometostat -0.026 | [14] 0.051 | [15] -0.089

3 successive entries from above, quoted:
BPNT1 (UniProt O95861)
inactive: erlotinib -0.026 | [1] 0.016 | [2] 0.045 | [3] 0.008 | [4] -0.022 | [5] -0.008 | [6] 0.037 | [7] -0.016 | [8] -0.019 | [9] -0.021 | IRAK-1-4 Inhibitor I 0.023 | ibrutinib 0.044 | [10] 0.024 | ralimetinib -0.033 | [11] -0.011 | [12] 0.051 | [13] -0.013 | pinometostat -0.025 | [14] -0.021 | [15] -0.054

BABAM2 (UniProt Q9NXR7)
inactive: erlotinib -0.042 | [1] -0.004 | [2] -0.038 | [3] 0.002 | [4] -0.007 | [5] 0.012 | [6] 0.034 | [7] -0.011 | [8] -0.016 | [9] 0.073 | IRAK-1-4 Inhibitor I 0.024 | ibrutinib 0.024 | [10] 0.004 | ralimetinib 0.065 | [11] -0.014 | [12] 0.076 | [13] -0.011 | pinometostat 0.021 | [14] 0.05 | [15] 0.022

BSDC1 (UniProt Q9NW68)
inactive: erlotinib -0.058 | [1] 0.028 | [2] 0.048 | [3] 0.021 | [4] -0.026 | [5] 0.025 | [6] -0.066 | [7] -0.055 | [8] 0.035 | [9] -0.009 | IRAK-1-4 Inhibitor I 0.057 | ibrutinib 0.025 | [10] 0.06 | ralimetinib 0.042 | [11] 0.009 | [12] 0.004 | [13] 0.014 | pinometostat -0.026 | [14] 0.051 | [15] -0.089

Next part:

BCAP31 isoform 2 (UniProt P51572)
inactive: erlotinib 0.004 | [1] -0.014 | [2] 0.031 | [3] -0.011 | [4] -0.018 | [5] 0.031 | [6] -0.018 | [7] 0.043 | [8] 0.017 | [9] 0.038 | IRAK-1-4 Inhibitor I 0.055 | ibrutinib -0.013 | [10] 0.008 | ralimetinib -0.049 | [11] 0.029 | [12] 0.057 | [13] 0.019 | pinometostat -0.04 | [14] 0 | [15] -0.027

BCAT2 (UniProt O15382)
inactive: erlotinib 0.03 | [1] -0.02 | [2] 0.056 | [3] 0.021 | [4] -0.033 | [5] 0.04 | [6] -0.038 | [7] 0.03 | [8] 0.017 | [9] 0 | IRAK-1-4 Inhibitor I 0.005 | ibrutinib 0.013 | [10] -0.03 | ralimetinib -0.056 | [11] -0.015 | [12] 0.039 | [13] -0.019 | pinometostat -0.005 | [14] 0.042 | [15] -0.028

BLOC1S5 (UniProt Q8TDH9)
inactive: erlotinib 0.072 | [1] 0.013 | [2] 0.018 | [3] 0.039 | [4] 0.047 | [5] 0.044 | [6] -0.008 | [7] -0.03 | [8] -0.036 | [9] 0 | IRAK-1-4 Inhibitor I 0.058 | ibrutinib -0.026 | [10] -0.033 | ralimetinib -0.034 | [11] -0.071 | [12] 0.02 | [13] 0.006 | pinometostat 0.025 | [14] -0.074 | [15] 0.058

BAG2 (UniProt O95816)
inactive: erlotinib -0.057 | [1] -0.018 | [2] -0.267 | [3] -0.013 | [4] -0.1 | [5] 0.097 | [6] 0.005 | [7] 0.025 | [8] 0.073 | [9] -0.048 | IRAK-1-4 Inhibitor I -0.022 | ibrutinib 0.039 | [10] 0.145 | ralimetinib 0.12 | [11] 0.103 | [12] -0.039 | [13] 0.072 | pinometostat 0.289 | [14] 0.013 | [15] -0.074

ATRIP (UniProt Q8WXE1)
inactive: erlotinib 0.008 | [1] 0.044 | [2] 0.036 | [3] -0.003 | [4] 0.019 | [5] 0.03 | [6] -0.041 | [7] 0.023 | [8] 0.069 | [9] 0 | IRAK-1-4 Inhibitor I -0.05 | ibrutinib -0.087 | [10] -0.063 | ralimetinib -0.055 | [11] 0.003 | [12] -0.017 | [13] -0.064 | pinometostat 0.087 | [14] 0.06 | [15] 0.064

ATXN10 (UniProt Q9UBB4)
inactive: erlotinib -0.001 | [1] 0.063 | [2] 0.07 | [3] -0.007 | [4] 0.031 | [5] 0.03 | [6] 0.021 | [7] 0.019 | [8] 0.045 | [9] 0.033 | IRAK-1-4 Inhibitor I 0.03 | ibrutinib -0.023 | [10] -0.01 | ralimetinib -0.04 | [11] -0.031 | [12] -0.016 | [13] -0.042 | pinometostat -0.032 | [14] 0.026 | [15] 0.031

BANF1 (UniProt O75531)
inactive: erlotinib -0.018 | [1] -0.018 | [2] 0.187 | [3] 0.029 | [4] 0.187 | [5] 0.059 | [6] 0.073 | [7] -0.119 | [8] -0.036 | [9] -0.117 | IRAK-1-4 Inhibitor I -0.019 | ibrutinib -0.037 | [10] 0.024 | ralimetinib -0.098 | [11] -0.12 | [12] 0.081 | [13] -0.044 | pinometostat -0.064 | [14] 0.097 | [15] 0.202

BET1 (UniProt O15155)
inactive: erlotinib 0.006 | [1] -0.042 | [2] 0.048 | [3] 0.078 | [4] 0.115 | [5] 0.069 | [6] 0.006 | [7] -0.072 | [8] -0.032 | [9] 0.004 | IRAK-1-4 Inhibitor I 0.042 | ibrutinib -0.003 | [10] 0.034 | ralimetinib 0.002 | [11] 0.01 | [12] -0.06 | [13] 0.034 | pinometostat 0.008 | [14] 0.021 | [15] 0.026

AZGP1 (UniProt P25311)
inactive: erlotinib 0.423 | [1] -0.118 | [2] -0.063 | [3] -0.46 | [4] 0.149 | [5] -0.368 | [6] 0.14 | [7] -0.612 | [8] -0.379 | [9] -0.554 | IRAK-1-4 Inhibitor I -0.023 | ibrutinib 0.166 | [10] -0.164 | ralimetinib 0.071 | [11] 0.253 | [12] 0.515 | [13] -0.27 | pinometostat -0.212 | [14] -0.622 | [15] 0.721

BROX (UniProt Q5VW32)
inactive: erlotinib -0.002 | [1] 0.082 | [2] 0.213 | [3] -0.047 | [4] -0.037 | [5] 0.021 | [6] 0.007 | [7] 0.014 | [8] -0.007 | [9] -0.012 | IRAK-1-4 Inhibitor I -0.034 | ibrutinib -0.048 | [10] 0.008 | ralimetinib -0.024 | [11] -0.109 | [12] -0.036 | [13] 0.001 | pinometostat -0.027 | [14] -0.011 | [15] 0

BBC3 (UniProt Q9BXH1)
inactive: erlotinib 0.061 | [1] -0.016 | [2] 0.084 | [3] -0.022 | [4] 0.103 | [5] 0.079 | [6] -0.06 | [7] -0.006 | [8] 0 | [9] -0.11 | IRAK-1-4 Inhibitor I 0.118 | ibrutinib -0.153 | [10] -0.02 | ralimetinib -0.187 | [11] -0.193 | [12] 0.226 | [13] 0.02 | pinometostat -0.066 | [14] 0.086 | [15] 0.169
